# Measurements reported in patent publication US20260207548A1, “METHODS AND COMPOSITIONS FOR THE TREATMENT OF VASCULAR ANOMALIES” (THE CHILDREN'S MEDICAL CENTER CORPORATION, priority 2022, published 2026).
# “Also recorded” adds a separate entry of the source.
# Key:
# [1] = test system: Hemangioma-derived stem cells (HemSC); test: IH xenograft model: patient-derived HemSC in Matrigel injected subcutaneously into nude mice, human blood vessel formation; type: in vivo
# Procedure: MilliporeSigma) was prepared in DMSO. […] Histology and IF analysis: […] Dako, Glostrup, 0823) to stain human ECs. Next, sections were incubated with Alexa Fluor 647 chicken anti-mouse IgG (1:200, Invitrogen, Thermo Fisher Scientific) as a secondary antibody (FIG. 9C, 9D).
# murine blood vessels = conditions: maximum dose of simvastatin or atorvastatin vs vehicle
smiles,measurement,setting,value
CC(C)c1c(C(=O)Nc2ccccc2)c(-c2ccccc2)c(-c2ccc(F)cc2)n1CC[C@@H](O)C[C@@H](O)CC(=O)O [atorvastatin],vessel formation / vessel density,"[1]; 1 mg/kg/d, i.p. twice a day, 7 days, vs vehicle",significantly inhibit vessel formation; also recorded: significant inhibitory effect on vessel formation; also recorded: significant reduction of vessel density
same,vessel density (vessels/mm2),"[1]; atorvastatin 1, 5, 10 or 15 mg/kg/d every 12 hours for 7 days",significant reduction in vessel density at each dose
same,density of murine blood vessels in the Matrigel implants,murine blood vessels,unaffected
